# Source: PMC9008841
# Target: T1, Gal4-BD-Cdk8 (S. cerevisiae) (UniProt P39073)
# T1 sequence: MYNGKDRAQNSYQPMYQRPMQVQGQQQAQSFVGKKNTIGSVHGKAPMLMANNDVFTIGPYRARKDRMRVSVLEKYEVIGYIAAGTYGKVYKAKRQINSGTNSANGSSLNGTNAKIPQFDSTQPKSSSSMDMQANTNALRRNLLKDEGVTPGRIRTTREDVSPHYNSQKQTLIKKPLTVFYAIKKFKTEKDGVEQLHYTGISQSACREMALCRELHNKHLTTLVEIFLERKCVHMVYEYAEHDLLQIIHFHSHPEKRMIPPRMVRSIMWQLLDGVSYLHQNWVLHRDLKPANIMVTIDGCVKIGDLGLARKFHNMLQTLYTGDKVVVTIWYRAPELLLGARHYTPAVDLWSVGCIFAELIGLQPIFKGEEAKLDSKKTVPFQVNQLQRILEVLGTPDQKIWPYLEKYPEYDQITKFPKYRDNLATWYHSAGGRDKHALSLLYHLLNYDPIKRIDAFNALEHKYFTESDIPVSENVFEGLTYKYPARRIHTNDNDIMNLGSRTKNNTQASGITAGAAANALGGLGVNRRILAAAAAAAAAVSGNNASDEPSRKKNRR
# Test: two-hybrid; Y2H Gold cells harboring Gal4-BD-Cdk8 and Gal4-AD-Rim15 subclones; read-out induction of the ADE2 and HIS3 reporter genes
row,binding,Substance
1,no binding,Gal4-AD-Rim15 C-Terminal Disordered-Regulatory domain (DDII REG) (S. cerevisiae) (domain or fragment)
2,binds,Gal4-AD-Rim15 N-terminal PAS-ZnF domain (S. cerevisiae) (domain or fragment)

# These are yes or no findings as the source states them, for the method shown. Binding can be weak; no strength is given. Sequences can lack the tags named with a protein.
